Measurements from publication PMC12520511.
No constants are given. Whether binding was seen depends on the method and setting. Binding seen in cells or lysates may run through a third protein. Some binding calls cover weakened binding; strength is not graded here.

The chains behind the UniProt entries cited, without tags or fusion partners.
UniProt P35222: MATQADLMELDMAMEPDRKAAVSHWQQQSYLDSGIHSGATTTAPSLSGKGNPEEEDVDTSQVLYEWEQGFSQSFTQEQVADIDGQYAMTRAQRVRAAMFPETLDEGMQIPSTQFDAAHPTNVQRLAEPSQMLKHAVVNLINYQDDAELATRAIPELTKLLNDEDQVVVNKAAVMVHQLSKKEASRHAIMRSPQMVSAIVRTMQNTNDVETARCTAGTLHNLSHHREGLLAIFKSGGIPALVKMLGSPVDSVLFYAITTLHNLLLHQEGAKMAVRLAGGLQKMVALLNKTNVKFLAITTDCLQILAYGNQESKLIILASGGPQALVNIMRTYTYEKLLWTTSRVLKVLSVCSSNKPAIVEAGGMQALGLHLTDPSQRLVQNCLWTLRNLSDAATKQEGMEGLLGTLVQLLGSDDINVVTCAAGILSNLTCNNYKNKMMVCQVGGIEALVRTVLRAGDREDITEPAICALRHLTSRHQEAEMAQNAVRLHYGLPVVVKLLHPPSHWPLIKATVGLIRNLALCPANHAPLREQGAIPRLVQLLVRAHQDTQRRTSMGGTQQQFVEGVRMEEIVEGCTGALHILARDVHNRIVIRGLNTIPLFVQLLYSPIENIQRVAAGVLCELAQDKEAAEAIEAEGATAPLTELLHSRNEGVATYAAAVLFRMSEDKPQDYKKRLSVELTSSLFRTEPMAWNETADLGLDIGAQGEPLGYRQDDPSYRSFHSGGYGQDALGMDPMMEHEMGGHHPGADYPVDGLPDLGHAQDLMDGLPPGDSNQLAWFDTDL
UniProt P40227: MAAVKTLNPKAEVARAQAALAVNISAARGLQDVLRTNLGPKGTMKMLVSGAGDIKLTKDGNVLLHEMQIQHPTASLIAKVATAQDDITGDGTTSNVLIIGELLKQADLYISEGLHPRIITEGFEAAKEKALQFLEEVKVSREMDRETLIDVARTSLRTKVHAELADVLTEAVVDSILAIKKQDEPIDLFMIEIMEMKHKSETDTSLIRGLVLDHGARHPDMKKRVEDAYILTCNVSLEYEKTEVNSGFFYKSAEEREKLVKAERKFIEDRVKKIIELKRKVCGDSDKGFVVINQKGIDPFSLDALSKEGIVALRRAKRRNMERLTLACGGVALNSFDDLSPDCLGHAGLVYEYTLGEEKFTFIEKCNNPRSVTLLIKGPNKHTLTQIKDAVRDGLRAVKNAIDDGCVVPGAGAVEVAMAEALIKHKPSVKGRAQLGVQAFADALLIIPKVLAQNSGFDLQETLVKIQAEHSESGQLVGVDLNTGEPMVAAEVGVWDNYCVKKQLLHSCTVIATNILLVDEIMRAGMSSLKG
UniProt O15169: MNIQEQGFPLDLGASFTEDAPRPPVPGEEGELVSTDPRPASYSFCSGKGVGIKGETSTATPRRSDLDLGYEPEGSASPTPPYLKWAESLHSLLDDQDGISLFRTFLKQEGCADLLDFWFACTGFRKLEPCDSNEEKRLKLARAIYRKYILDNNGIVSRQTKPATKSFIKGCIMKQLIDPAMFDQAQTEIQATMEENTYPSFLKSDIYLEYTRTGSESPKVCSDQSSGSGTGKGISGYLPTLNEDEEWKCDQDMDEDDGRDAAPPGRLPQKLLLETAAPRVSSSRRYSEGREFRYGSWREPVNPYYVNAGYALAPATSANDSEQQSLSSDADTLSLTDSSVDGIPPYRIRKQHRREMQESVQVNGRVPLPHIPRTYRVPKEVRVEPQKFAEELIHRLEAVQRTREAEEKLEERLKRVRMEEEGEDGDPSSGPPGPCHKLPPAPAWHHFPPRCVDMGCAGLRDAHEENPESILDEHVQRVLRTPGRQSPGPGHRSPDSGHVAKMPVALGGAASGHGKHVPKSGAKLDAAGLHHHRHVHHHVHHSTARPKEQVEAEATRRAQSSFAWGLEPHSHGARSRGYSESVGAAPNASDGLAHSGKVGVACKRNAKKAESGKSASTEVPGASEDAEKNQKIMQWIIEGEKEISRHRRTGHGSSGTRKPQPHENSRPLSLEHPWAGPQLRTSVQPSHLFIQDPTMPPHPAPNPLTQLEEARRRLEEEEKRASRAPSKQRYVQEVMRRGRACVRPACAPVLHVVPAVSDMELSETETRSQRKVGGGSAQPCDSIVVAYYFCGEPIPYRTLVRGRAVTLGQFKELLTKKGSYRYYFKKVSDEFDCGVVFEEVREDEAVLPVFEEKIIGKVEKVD

Experiments:
[1] = biological target: β‐catenin (human (endogenous in HGC-27 and MKN-45)) (UniProt P35222); test: co-IP; β-catenin with endogenous AXIN1, DVL and GSK3β in HGC-27 cells co-cultured with CAFs, upon CCT6A overexpression; Western blot
[2] = biological target: Flag‐tagged CCT6A (UniProt P40227); test: co-IP; HGC-27 and MKN-45 cells co-cultured with CAFs and expressing Flag-tagged CCT6A; IP lysis buffer, anti-CCT6A overnight at 4 °C, protein A/G beads, Western blot

Substance | binding [1] | binding [2]
AXIN1 (from UniProt O15169 1-862) | binds | 
β‐catenin (from UniProt P35222 1-781) |  | binds
